From patent publication US20120202847A1, “Novel Tetrahydroisoquinoline Compounds” (priority 2009, published 2012)
Some results were stated once for a whole list of compounds, not compound by compound. For at least one compound, name, drawing or mass did not settle the structure.

Molecular target: T1, DGAT1 (Mus musculus, UniProt Q9Z2A7)
T1 construct: from tissue; host or cells: live C57BL/6N mice (small intestine)
T1 sequence (Q9Z2A7 1-498): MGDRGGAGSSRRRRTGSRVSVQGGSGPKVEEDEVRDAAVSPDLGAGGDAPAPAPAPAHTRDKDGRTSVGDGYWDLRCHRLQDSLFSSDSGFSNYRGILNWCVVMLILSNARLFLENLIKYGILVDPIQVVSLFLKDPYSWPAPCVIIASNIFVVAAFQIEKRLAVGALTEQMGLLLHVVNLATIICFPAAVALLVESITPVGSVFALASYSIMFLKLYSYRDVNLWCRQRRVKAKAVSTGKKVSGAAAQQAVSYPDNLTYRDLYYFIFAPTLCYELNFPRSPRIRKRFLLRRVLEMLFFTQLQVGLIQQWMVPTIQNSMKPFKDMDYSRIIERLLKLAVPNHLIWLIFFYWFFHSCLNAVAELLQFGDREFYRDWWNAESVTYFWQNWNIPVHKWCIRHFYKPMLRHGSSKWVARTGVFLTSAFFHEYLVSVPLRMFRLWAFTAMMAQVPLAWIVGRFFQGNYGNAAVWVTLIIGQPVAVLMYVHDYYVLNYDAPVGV
Test: Triglyceride absorption suppression after fat loading (in vivo DGAT1 inhibitory effect)
Details: male C57BL/6N mice, oral, dose of 10 mg/kg or lower; plasma triglyceride 1 to 4 hours after fat emulsion

Triglyceride absorption suppressive activity, ≥ 60%:
O=C(O)C[C@H]1CC[C@H](OC(=O)N2CCc3cc(NC(=O)Nc4cccc(C(F)(F)F)c4F)ccc3C2)CC1 [Example 21, trans-6-[3-(2-fluoro-3-trifluoromethyl-phenyl)-ureido]-3,4-dihydro-1H-isoquinoline-2-carboxylic acid 4-carboxymethyl-cyclohexyl ester]
O=C(O)C[C@H]1CC[C@H](OC(=O)N2CCc3cc(NC(=O)Nc4cc(C(F)(F)F)ccc4F)ccc3C2)CC1 [Example 22, trans-6-[3-(2-fluoro-5-trifluoromethyl-phenyl)-ureido]-3,4-dihydro-1H-isoquinoline-2-carboxylic acid 4-carboxymethyl-cyclohexyl ester]
Cc1ccc(NC(=O)Nc2ccc3c(c2)CCN(C(=O)O[C@H]2CC[C@H](CC(=O)O)CC2)C3)c(C)c1 [Example 23, trans-6-[3-(2,4-dimethyl-phenyl)-ureido]-3,4-dihydro-1H-isoquinoline-2-carboxylic acid 4-carboxymethyl-cyclohexyl ester]
O=C(O)C[C@H]1CC[C@H](OC(=O)N2CCc3cc(NC(=O)Nc4ccc(Cl)cc4Cl)ccc3C2)CC1 [Example 24, trans-6-[3-(2,4-dichloro-phenyl)-ureido]-3,4-dihydro-1H-isoquinoline-2-carboxylic acid 4-carboxymethyl-cyclohexyl ester]
O=C(O)C[C@H]1CC[C@H](OC(=O)N2CCc3cc(NC(=O)Nc4c(F)cccc4C(F)(F)F)ccc3C2)CC1 [Example 25, trans-6-[3-(2-fluoro-6-trifluoromethyl-phenyl)-ureido]-3,4-dihydro-1H-isoquinoline-2-carboxylic acid 4-carboxymethyl-cyclohexyl ester]
Cc1cc(Cl)ccc1NC(=O)Nc1ccc2c(c1)CCN(C(=O)O[C@H]1CC[C@H](CC(=O)O)CC1)C2 [Example 26]
Cc1cccc(NC(=O)Nc2ccc3c(c2)CCN(C(=O)O[C@H]2CC[C@H](CC(=O)O)CC2)C3)c1Cl [Example 27, trans-6-[3-(2-chloro-3-methyl-phenyl)-ureido]-3,4-dihydro-1H-isoquinoline-2-carboxylic acid 4-carboxymethyl-cyclohexyl ester]
O=C(O)C[C@H]1CC[C@H](OC(=O)N2CCc3cc(NC(=O)Nc4ccc(Cl)cc4C(F)(F)F)ccc3C2)CC1 [Example 28, trans-6-[3-(4-chloro-2-trifluoromethyl-phenyl)-ureido]-3,4-dihydro-1H-isoquinoline-2-carboxylic acid 4-carboxymethyl-cyclohexyl ester]
O=C(O)C[C@H]1CC[C@H](OC(=O)N2CCc3cc(NC(=O)Nc4ccc(C(F)(F)F)cc4Cl)ccc3C2)CC1 [Example 29, trans-6-[3-(2-chloro-4-trifluoromethyl-phenyl)-ureido]-3,4-dihydro-1H-isoquinoline-2-carboxylic acid 4-carboxymethyl-cyclohexyl ester]
Cc1ccc(NC(=O)Nc2ccc3c(c2)CCN(C(=O)O[C@H]2CC[C@H](CC(=O)O)CC2)C3)cc1F [Example 30, trans-6-[3-(3-fluoro-4-methyl-phenyl)-ureido]-3,4-dihydro-1H-isoquinoline-2-carboxylic acid 4-carboxymethyl-cyclohexyl ester]
O=C(O)C[C@H]1CC[C@H](OC(=O)N2CCc3cc(NC(=O)Nc4cc(F)cc(F)c4)ccc3C2)CC1 [Example 31, trans-6-[3-(3,5-difluoro-phenyl)-ureido]-3,4-dihydro-1H-isoquinoline-2-carboxylic acid 4-carboxymethyl-cyclohexyl ester]
O=C(O)C[C@H]1CC[C@H](OC(=O)N2CCc3cc(NC(=O)Nc4ccc(F)c(Cl)c4)ccc3C2)CC1 [Example 32, trans-6-[3-(3-chloro-4-fluoro-phenyl)-ureido]-3,4-dihydro-1H-isoquinoline-2-carboxylic acid 4-carboxymethyl-cyclohexyl ester]
Cc1cc(C)cc(NC(=O)Nc2ccc3c(c2)CCN(C(=O)O[C@H]2CC[C@H](CC(=O)O)CC2)C3)c1 [Example 33, trans-6-[3-(3,5-dimethyl-phenyl)-ureido]-3,4-dihydro-1H-isoquinoline-2-carboxylic acid 4-carboxymethyl-cyclohexyl ester]
Cc1ccc(NC(=O)Nc2ccc3c(c2)CCN(C(=O)O[C@H]2CC[C@H](CC(=O)O)CC2)C3)cc1Cl [Example 34, trans-6-[3-(3-chloro-4-methyl-phenyl)-ureido]-3,4-dihydro-1H-isoquinoline-2-carboxylic acid 4-carboxymethyl-cyclohexyl ester]
Cc1cccc(NC(=O)Nc2ccc3c(c2)CCN(C(=O)O[C@H]2CC[C@H](CC(=O)O)CC2)C3)c1C [Example 35, trans-6-[3-(2,3-dimethyl-phenyl)-ureido]-3,4-dihydro-1H-isoquinoline-2-carboxylic acid 4-carboxymethyl-cyclohexyl ester]
Cc1c(Cl)cccc1NC(=O)Nc1ccc2c(c1)CCN(C(=O)O[C@H]1CC[C@H](CC(=O)O)CC1)C2 [Example 36, trans-6-[3-(3-chloro-2-methyl-phenyl)-ureido]-3,4-dihydro-1H-isoquinoline-2-carboxylic acid 4-carboxymethyl-cyclohexyl ester]
O=C(O)C[C@H]1CC[C@H](OC(=O)N2CCc3cc(NC(=O)Nc4cccc(Cl)c4Cl)ccc3C2)CC1 [Example 37, trans-6-[3-(2,3-dichloro-phenyl)-ureido]-3,4-dihydro-1H-isoquinoline-2-carboxylic acid 4-carboxymethyl-cyclohexyl ester]
Cc1cc(NC(=O)Nc2ccc3c(c2)CCN(C(=O)O[C@H]2CC[C@H](CC(=O)O)CC2)C3)ccc1F [Example 38, trans-6-[3-(4-fluoro-3-methyl-phenyl)-ureido]-3,4-dihydro-1H-isoquinoline-2-carboxylic acid 4-carboxymethyl-cyclohexyl ester]
COc1cc(NC(=O)Nc2ccc3c(c2)CCN(C(=O)O[C@H]2CC[C@H](CC(=O)O)CC2)C3)cc(OC)c1 [Example 39, trans-6-[3-(3,5-dimethoxy-phenyl)-ureido]-3,4-dihydro-1H-isoquinoline-2-carboxylic acid 4-carboxymethyl-cyclohexyl ester]
O=C(O)C[C@H]1CC[C@H](OC(=O)N2CCc3cc(NC(=O)Nc4ccc(Cl)c(Cl)c4)ccc3C2)CC1 [Example 40, trans-6-[3-(3,4-dichloro-phenyl)-ureido]-3,4-dihydro-1H-isoquinoline-2-carboxylic acid 4-carboxymethyl-cyclohexyl ester]
COc1ccc(NC(=O)Nc2ccc3c(c2)CCN(C(=O)O[C@H]2CC[C@H](CC(=O)O)CC2)C3)cc1Cl [Example 41, trans-6-[3-(3-chloro-4-methoxy-phenyl)-ureido]-3,4-dihydro-1H-isoquinoline-2-carboxylic acid 4-carboxymethyl-cyclohexyl ester]
COc1cccc(NC(=O)Nc2ccc3c(c2)CCN(C(=O)O[C@H]2CC[C@H](CC(=O)O)CC2)C3)c1F [Example 42, trans-6-[3-(2-fluoro-3-methoxy-phenyl)-ureido]-3,4-dihydro-1H-isoquinoline-2-carboxylic acid 4-carboxymethyl-cyclohexyl ester]
O=C(O)C[C@H]1CC[C@H](OC(=O)N2CCc3cc(NC(=O)Nc4cc(Cl)cc(Cl)c4)ccc3C2)CC1 [Example 43, trans-6-[3-(3,5-dichloro-phenyl)-ureido]-3,4-dihydro-1H-isoquinoline-2-carboxylic acid 4-carboxymethyl-cyclohexyl ester]
COc1ccc(NC(=O)Nc2ccc3c(c2)CCN(C(=O)O[C@H]2CC[C@H](CC(=O)O)CC2)C3)cc1OC [Example 44, trans-6-[3-(3,4-dimethoxy-phenyl)-ureido]-3,4-dihydro-1H-isoquinoline-2-carboxylic acid 4-carboxymethyl-cyclohexyl ester]
COc1ccc(NC(=O)Nc2ccc3c(c2)CCN(C(=O)O[C@H]2CC[C@H](CC(=O)O)CC2)C3)cc1F [Example 45, trans-6-[3-(3-fluoro-4-methoxy-phenyl)-ureido]-3,4-dihydro-1H-isoquinoline-2-carboxylic acid 4-carboxymethyl-cyclohexyl ester]
O=C(O)C[C@H]1CC[C@H](OC(=O)N2CCc3cc(NC(=O)Nc4cccc(Cl)c4)ccc3C2)CC1 [Example 46, trans-6-[3-(3-chloro-phenyl)-ureido]-3,4-dihydro-1H-isoquinoline-2-carboxylic acid 4-carboxymethyl-cyclohexyl ester]
